Assay results reported in US20230331852A1.
No constants are given. Whether binding was seen depends on the method and setting. Some binding calls cover weakened binding; strength is not graded here.

Protein sequences, listed by entry. Tags and fused reporters are not part of them. Lines headed by an entry give the natural chain unless they say otherwise; changes in a name come on top.
UniProt Q8NC01: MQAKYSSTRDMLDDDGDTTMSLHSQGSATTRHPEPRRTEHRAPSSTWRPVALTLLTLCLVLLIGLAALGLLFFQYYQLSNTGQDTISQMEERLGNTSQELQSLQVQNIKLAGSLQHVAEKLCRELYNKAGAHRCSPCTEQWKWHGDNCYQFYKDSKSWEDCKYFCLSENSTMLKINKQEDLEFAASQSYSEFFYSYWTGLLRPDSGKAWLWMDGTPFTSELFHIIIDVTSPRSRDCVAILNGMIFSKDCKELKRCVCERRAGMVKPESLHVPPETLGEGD

What was measured:
[1] = molecular target: human CLEC-1A expressed on the cell membrane (human) (UniProt Q8NC01); assay: flow cytometry on human U266 cells
[2] = molecular target: recombinant human CLEC-1 protein with His Tag (#1704-CL R&D Systems) (human) (UniProt Q8NC01); assay: BLI (Blitz), CLEC1-His on Ni-NTA biosensor
[3] = molecular target: recombinant human CLEC-1 protein with His Tag (#1704-CL R&D Systems) (human) (UniProt Q8NC01); assay: ELISA, immobilised hCLEC1-His

Measured: binding

B1: murine anti-hCLEC1 antibody 14H9-F3 (antibody, V domains shown)
VH: QVQLKESGPGLVAPSQSLSITCTISGFSLTTYGIHWVRQPPGKGLEWLVVIWSDGSTIYNSALKSRLSISKDNSKSQVFLKMNSLQTDDTAIYYCARHGGYYNYFDYWGQGTTLTVSS
VL: DIQMNQSPSSLSASLGDTITITCHASQNINVWLSWYQQKPGNIPKLLIYKASNLHTGVPSRFSGSGSGTTFTLTIDSLQPEDIATYYCQQGQSYWTFGGGTKLEIK
binds: [1] | [2] | [3]
